We go through 35 targets from the supplement of paper PMC10849652.

Chains of the proteins cited; added tags and fusions are not shown. Lines headed by an entry give the natural chain unless they say otherwise; changes in a name come on top.
UniProt P68363, whole entry, looked up: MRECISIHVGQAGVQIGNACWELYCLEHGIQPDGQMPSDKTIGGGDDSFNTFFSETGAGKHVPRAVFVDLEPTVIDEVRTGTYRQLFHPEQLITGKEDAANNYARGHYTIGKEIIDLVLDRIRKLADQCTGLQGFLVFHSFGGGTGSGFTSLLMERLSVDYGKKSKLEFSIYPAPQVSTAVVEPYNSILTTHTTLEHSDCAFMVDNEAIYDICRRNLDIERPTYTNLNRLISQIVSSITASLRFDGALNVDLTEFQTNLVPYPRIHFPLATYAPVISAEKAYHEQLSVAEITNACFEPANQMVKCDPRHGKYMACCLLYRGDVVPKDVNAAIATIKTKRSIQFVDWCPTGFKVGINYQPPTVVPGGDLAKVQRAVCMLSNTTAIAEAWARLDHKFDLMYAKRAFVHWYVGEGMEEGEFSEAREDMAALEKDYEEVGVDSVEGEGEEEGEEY
UniProt Q9BQE3, whole entry, looked up: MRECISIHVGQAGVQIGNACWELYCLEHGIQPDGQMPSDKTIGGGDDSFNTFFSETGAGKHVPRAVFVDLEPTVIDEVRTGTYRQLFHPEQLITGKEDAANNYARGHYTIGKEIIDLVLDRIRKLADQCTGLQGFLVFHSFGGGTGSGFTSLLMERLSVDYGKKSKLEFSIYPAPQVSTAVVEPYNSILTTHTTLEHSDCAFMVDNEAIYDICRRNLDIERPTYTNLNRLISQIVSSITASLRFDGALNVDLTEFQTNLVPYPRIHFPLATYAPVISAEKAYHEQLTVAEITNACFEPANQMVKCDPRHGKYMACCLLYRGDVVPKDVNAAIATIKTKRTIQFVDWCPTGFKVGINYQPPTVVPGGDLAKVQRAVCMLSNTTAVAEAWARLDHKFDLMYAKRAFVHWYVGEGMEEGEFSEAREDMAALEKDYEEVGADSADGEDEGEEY
UniProt P51668: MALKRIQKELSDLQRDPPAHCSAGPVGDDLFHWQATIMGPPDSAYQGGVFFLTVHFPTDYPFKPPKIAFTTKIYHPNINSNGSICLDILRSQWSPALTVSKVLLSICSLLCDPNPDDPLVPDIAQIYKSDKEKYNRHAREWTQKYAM
UniProt Q9NRR5, whole entry, looked up: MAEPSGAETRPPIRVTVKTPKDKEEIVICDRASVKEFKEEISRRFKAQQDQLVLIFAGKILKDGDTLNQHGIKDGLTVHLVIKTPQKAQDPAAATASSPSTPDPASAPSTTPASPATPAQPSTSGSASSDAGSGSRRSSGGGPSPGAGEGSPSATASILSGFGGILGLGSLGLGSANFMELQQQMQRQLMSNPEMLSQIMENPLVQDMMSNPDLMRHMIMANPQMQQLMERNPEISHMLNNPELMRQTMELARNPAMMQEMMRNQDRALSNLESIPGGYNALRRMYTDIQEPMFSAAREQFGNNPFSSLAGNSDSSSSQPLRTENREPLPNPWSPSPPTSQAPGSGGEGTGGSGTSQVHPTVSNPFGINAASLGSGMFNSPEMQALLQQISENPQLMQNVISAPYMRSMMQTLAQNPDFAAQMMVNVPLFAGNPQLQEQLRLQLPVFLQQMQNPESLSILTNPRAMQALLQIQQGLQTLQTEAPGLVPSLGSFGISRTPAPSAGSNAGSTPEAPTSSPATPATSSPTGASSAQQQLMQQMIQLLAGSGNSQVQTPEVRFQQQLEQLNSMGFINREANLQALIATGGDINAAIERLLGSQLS
UniProt P22314: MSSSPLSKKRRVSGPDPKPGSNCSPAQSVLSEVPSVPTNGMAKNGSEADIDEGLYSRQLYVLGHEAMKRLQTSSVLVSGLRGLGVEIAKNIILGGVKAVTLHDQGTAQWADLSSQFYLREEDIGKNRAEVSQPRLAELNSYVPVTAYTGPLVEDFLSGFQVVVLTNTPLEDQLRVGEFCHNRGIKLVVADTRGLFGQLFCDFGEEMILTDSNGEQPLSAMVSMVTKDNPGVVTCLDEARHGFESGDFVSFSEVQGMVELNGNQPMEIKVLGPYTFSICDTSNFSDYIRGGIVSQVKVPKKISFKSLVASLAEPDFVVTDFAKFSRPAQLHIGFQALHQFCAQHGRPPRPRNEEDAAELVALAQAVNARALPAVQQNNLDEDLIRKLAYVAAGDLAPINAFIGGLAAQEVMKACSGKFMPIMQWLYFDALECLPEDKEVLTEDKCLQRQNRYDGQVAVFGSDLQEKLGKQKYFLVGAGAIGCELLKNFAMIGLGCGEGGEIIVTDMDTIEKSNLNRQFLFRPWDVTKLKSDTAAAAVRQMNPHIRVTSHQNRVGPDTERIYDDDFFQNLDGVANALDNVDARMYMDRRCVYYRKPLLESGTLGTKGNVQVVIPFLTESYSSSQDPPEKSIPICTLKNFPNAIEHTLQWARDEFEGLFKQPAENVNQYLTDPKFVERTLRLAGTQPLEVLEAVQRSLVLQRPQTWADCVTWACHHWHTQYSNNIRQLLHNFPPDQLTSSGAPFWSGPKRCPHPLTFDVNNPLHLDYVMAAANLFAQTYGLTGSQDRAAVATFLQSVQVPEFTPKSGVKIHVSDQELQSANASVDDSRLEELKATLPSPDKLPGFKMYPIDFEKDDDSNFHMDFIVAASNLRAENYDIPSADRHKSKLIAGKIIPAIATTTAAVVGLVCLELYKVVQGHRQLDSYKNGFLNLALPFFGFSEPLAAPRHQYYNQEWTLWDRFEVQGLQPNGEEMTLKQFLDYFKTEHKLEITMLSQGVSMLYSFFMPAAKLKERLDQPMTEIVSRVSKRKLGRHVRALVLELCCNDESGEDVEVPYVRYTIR
UniProt O95071: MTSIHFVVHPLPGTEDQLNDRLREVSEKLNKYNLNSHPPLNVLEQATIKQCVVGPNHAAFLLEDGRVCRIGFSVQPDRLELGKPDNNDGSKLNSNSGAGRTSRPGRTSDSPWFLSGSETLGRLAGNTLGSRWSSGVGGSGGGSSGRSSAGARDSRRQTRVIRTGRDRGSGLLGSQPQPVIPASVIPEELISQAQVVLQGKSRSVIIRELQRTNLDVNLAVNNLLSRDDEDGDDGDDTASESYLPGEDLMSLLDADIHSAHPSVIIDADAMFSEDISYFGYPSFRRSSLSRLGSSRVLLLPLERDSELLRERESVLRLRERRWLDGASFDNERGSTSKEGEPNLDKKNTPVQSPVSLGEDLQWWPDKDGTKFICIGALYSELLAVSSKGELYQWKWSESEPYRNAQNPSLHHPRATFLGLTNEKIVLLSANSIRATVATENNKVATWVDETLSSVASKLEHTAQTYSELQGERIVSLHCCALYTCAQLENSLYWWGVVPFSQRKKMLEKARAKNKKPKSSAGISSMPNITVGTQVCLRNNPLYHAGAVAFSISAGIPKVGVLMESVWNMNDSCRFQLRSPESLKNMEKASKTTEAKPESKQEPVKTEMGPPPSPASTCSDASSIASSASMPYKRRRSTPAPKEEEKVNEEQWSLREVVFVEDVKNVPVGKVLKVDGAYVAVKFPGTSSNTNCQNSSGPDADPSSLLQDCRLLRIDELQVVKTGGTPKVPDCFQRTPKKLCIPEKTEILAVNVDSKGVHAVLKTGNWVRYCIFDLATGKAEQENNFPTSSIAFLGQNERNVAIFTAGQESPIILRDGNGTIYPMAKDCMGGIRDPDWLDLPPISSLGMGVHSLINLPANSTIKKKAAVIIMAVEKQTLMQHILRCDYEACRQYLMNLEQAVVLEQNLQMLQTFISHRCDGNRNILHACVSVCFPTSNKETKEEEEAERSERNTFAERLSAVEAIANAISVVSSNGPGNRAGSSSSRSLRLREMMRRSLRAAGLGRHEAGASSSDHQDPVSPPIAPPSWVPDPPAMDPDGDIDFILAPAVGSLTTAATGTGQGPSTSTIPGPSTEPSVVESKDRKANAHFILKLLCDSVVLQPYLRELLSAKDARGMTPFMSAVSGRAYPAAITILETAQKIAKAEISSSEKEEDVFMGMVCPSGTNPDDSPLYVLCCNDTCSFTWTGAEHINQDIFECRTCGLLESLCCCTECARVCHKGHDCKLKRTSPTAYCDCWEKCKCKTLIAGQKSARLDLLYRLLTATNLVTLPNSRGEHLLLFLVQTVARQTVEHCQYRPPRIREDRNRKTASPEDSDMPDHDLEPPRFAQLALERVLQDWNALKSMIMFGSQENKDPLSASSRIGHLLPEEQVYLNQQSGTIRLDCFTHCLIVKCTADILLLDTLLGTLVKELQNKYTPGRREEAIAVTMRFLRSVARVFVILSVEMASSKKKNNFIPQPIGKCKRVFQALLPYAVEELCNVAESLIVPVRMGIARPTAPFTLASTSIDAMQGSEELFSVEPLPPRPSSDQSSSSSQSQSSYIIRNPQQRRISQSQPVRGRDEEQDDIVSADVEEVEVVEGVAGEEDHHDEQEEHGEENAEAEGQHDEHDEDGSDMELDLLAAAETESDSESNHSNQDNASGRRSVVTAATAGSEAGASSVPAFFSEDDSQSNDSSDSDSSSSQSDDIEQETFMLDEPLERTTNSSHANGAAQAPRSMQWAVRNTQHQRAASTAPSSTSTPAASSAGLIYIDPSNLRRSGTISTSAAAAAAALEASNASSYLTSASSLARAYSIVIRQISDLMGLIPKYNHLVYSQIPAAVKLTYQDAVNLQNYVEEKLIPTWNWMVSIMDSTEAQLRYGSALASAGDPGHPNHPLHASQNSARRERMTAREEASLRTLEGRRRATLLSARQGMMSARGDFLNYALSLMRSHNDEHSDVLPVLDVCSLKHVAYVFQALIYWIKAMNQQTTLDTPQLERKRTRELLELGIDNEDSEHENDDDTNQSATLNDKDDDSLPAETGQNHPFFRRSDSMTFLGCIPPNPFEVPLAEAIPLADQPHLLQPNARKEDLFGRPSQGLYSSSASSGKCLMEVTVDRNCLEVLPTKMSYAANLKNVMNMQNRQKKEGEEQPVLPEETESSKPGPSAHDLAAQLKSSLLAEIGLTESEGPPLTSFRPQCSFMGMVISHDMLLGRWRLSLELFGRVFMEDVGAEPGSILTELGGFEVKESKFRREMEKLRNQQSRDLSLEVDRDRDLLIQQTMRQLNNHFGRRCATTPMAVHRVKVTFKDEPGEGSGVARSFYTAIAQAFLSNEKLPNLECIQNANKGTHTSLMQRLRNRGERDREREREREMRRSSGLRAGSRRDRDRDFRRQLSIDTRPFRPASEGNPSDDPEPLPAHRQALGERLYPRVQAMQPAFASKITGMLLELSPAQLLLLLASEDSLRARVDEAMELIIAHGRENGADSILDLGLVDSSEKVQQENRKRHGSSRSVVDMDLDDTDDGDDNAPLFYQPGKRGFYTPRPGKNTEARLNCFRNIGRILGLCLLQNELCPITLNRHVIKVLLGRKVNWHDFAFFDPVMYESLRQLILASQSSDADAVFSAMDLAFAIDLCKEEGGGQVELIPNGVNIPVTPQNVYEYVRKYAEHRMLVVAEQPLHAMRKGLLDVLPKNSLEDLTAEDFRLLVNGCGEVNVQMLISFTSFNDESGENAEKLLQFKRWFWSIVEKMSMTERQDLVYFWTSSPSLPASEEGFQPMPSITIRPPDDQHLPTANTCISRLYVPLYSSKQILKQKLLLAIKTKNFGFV
UniProt Q3KQV9: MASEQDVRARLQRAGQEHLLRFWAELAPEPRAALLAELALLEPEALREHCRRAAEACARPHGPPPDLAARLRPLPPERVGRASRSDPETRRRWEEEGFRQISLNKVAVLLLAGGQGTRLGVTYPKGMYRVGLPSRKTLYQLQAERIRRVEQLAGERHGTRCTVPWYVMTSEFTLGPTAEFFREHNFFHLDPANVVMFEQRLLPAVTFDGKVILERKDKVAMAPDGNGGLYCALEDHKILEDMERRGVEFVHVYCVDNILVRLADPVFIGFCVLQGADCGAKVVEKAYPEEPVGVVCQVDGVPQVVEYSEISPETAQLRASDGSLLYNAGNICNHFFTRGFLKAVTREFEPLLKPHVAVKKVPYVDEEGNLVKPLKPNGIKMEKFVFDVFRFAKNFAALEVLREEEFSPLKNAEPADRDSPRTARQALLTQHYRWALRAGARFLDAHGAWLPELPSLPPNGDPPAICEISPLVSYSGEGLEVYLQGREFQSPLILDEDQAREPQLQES
UniProt Q9UJT1: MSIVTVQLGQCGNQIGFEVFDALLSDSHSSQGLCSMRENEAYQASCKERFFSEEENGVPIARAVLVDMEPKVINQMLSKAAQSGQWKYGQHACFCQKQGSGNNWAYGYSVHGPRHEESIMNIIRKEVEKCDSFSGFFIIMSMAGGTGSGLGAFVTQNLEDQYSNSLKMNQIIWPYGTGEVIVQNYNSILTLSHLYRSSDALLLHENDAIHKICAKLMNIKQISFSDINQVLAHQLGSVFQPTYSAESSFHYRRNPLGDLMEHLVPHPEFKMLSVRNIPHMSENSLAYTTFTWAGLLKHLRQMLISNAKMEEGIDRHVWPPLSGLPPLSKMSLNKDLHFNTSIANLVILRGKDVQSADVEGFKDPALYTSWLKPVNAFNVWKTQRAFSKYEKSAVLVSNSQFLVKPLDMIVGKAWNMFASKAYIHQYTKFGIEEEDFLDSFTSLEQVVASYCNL

The list shows a part of the results.

Compound in the first test: CNc1nc(-c2ccc3c(N)n[nH]c3c2)cc(N2C[C@@H](C(=O)NC3CCCCC3)CC[C@H]2C)n1
The test can be described thus: log2 fold change, soluble protein after heating vs DMSO (PISA); higher = thermal stabilisation; K562 lysate, 10 uM; active = over 0.2 and 3.5 SD of the protein, either way, in both replicates (recomputed). The essentials:
(§1)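 Thermal stability, expressed as log-two fold change relative to solvent controls, is given from duplicates. Crude K562 extract in PBS pH 7.4 with 1 mM MgCl2, at 1 mg/mL protein, was treated with 10 μM compound for 30 min and heated in aliquots for 3 min across 48°C-58°C. After pooling, adjustment to 0.5% NP-40 at 4°C and centrifugation at 21,000xg for 90 min, supernatant protein was measured by TMTpro 16plex LC-MS/MS with channel sums equalised.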
With TUBA1B (UniProt P68363), the log2 fold change is inactive: 0.003.

On to TUBA1C (UniProt Q9BQE3), for which the log2 fold change is inactive: 0.06.

For the target UBE2M (UniProt P61081), the log2 fold change is inactive: 0.024.

With TYMS (UniProt P04818), the log2 fold change was inactive: -0.018.

With UBE2D1 (UniProt P51668), the log2 fold change is inactive: -0.027.

For UBQLN4 (UniProt Q9NRR5), the log2 fold change was inactive: 0.036.

Consider TWSG1 (UniProt Q9GZX9), for which the log2 fold change is inactive: 0.208.

Turning to UBA1 (UniProt P22314), the log2 fold change was inactive: -0.026.

Consider UBR5 (UniProt O95071), for which the log2 fold change is inactive: 0.

In the case of UAP1L1 (UniProt Q3KQV9), the log2 fold change was inactive: 0.032.

In the case of UBP1 (UniProt Q9NZI7), the log2 fold change was inactive: 0.002.

For UBE2NL (UniProt Q5JXB2), the log2 fold change was inactive: 0.072.

Turning to TUBD1 (UniProt Q9UJT1), the log2 fold change was inactive: -0.056.

Compound in a further test: COC(=O)N[C@@H](C)CNc1nccc(-c2cn(C(C)C)nc2-c2cc(Cl)cc(NS(C)(=O)=O)c2F)n1 [encorafenib]
Described as above. The essentials:
as §1
Consider UCK1 isoform 4 (UniProt Q9HA47), for which the log2 fold change is inactive: -0.01.

As for TUBA3C (UniProt P0DPH7), the log2 fold change was inactive: -0.037.

Regarding UBE2Z (UniProt Q9H832), the log2 fold change is inactive: 0.024.

For the target UBE2F isoform 2 (UniProt Q969M7), the log2 fold change was inactive: -0.075.

For TUBAL3 (UniProt A6NHL2), the log2 fold change was inactive: 0.03.

Regarding UBXN4 (UniProt Q92575), the log2 fold change is inactive: 0.024.

Take UBE4A isoform 2 (UniProt Q14139): the log2 fold change was inactive: 0.018.

For the target UBAP1 (UniProt Q9NZ09), the log2 fold change was inactive: 0.006.

UBE2G2 (UniProt P60604): the log2 fold change was inactive: -0.016.

As to UBR1 (UniProt Q8IWV7), the log2 fold change was inactive: 0.033.

As to TXLNG (UniProt Q9NUQ3), the log2 fold change was inactive: -0.003.

For UBE3D (UniProt Q7Z6J8), the log2 fold change was inactive: 0.03.

TUT4 (UniProt Q5TAX3): the log2 fold change is inactive: 0.059.

As for TWF2 (UniProt Q6IBS0), the log2 fold change was inactive: -0.023.

For U2SURP (UniProt O15042), the log2 fold change is inactive: 0.004.

UBA2 (UniProt Q9UBT2): the log2 fold change is inactive: -0.013.

Consider TXNDC5 (UniProt Q8NBS9), for which the log2 fold change was inactive: -0.035.

UBE2R2 (UniProt Q712K3): the log2 fold change was inactive: -0.032.

As to UBE2L3 isoform 3 (UniProt P68036), the log2 fold change is inactive: -0.021.

Consider UBE3A (UniProt Q05086), for which the log2 fold change is inactive: -0.002.

With UBAP2L isoform 5 (UniProt Q14157), the log2 fold change is inactive: 0.041.

For the target TUBGCP3 (UniProt Q96CW5), the log2 fold change was inactive: 0.024.

In the case of TUBA1B (UniProt P68363), the log2 fold change was inactive: -0.004.

Take TUBA1C (UniProt Q9BQE3): the log2 fold change is inactive: -0.002.

For UBE2M (UniProt P61081), the log2 fold change is inactive: -0.003.

Consider TYMS (UniProt P04818), for which the log2 fold change was inactive: 0.013.

For UBE2D1 (UniProt P51668), the log2 fold change is inactive: -0.025.

On to UBQLN4 (UniProt Q9NRR5), for which the log2 fold change was inactive: 0.007.

With TWSG1 (UniProt Q9GZX9), the log2 fold change is inactive: 0.01.

For UBA1 (UniProt P22314), the log2 fold change was inactive: -0.017.

In the case of UBR5 (UniProt O95071), the log2 fold change is inactive: 0.025.

With UAP1L1 (UniProt Q3KQV9), the log2 fold change is inactive: -0.009.

On to UBP1 (UniProt Q9NZI7), for which the log2 fold change was inactive: 0.115.

Take UBE2NL (UniProt Q5JXB2): the log2 fold change is inactive: 0.018.

As for TUBD1 (UniProt Q9UJT1), the log2 fold change is inactive: 0.018.

Compound in another test: COC(=O)[C@H](CCSC)NC(=O)C1=C(C=C(C=C1)NC[C@H](CS)N)C2=CC=CC=C2
The test is described as above. In outline:
as §1
With UCK1 isoform 4 (UniProt Q9HA47), the log2 fold change was inactive: -0.083.

For TUBA3C (UniProt P0DPH7), the log2 fold change is inactive: 0.042.

With UBE2Z (UniProt Q9H832), the log2 fold change was inactive: 0.009.

As for UBE2F isoform 2 (UniProt Q969M7), the log2 fold change is inactive: -0.044.

As to TUBAL3 (UniProt A6NHL2), the log2 fold change is inactive: 0.032.

As for UBXN4 (UniProt Q92575), the log2 fold change was inactive: -0.029.

On to UBE4A isoform 2 (UniProt Q14139), for which the log2 fold change is inactive: -0.102.

For the target UBAP1 (UniProt Q9NZ09), the log2 fold change was inactive: -0.105.

Turning to UBE2G2 (UniProt P60604), the log2 fold change was inactive: 0.097.

With UBR1 (UniProt Q8IWV7), the log2 fold change was inactive: 0.055.

On to TXLNG (UniProt Q9NUQ3), for which the log2 fold change is inactive: -0.028.

With UBE3D (UniProt Q7Z6J8), the log2 fold change is inactive: -0.031.

TUT4 (UniProt Q5TAX3): the log2 fold change was inactive: 0.125.

With TWF2 (UniProt Q6IBS0), the log2 fold change is inactive: -0.017.

For the target U2SURP (UniProt O15042), the log2 fold change is inactive: 0.051.

On to UBA2 (UniProt Q9UBT2), for which the log2 fold change is inactive: -0.003.

With TXNDC5 (UniProt Q8NBS9), the log2 fold change is inactive: -0.014.

Consider UBE2R2 (UniProt Q712K3), for which the log2 fold change is inactive: -0.043.

For UBE2L3 isoform 3 (UniProt P68036), the log2 fold change was inactive: -0.004.

With UBE3A (UniProt Q05086), the log2 fold change is inactive: -0.03.

Consider UBAP2L isoform 5 (UniProt Q14157), for which the log2 fold change was inactive: -0.002.

In the case of TUBGCP3 (UniProt Q96CW5), the log2 fold change was inactive: 0.011.

In the case of TUBA1B (UniProt P68363), the log2 fold change is inactive: 0.085.

For the target TUBA1C (UniProt Q9BQE3), the log2 fold change was inactive: 0.023.

Take UBE2M (UniProt P61081): the log2 fold change was inactive: -0.071.

With TYMS (UniProt P04818), the log2 fold change is inactive: -0.006.

In the case of UBE2D1 (UniProt P51668), the log2 fold change is inactive: -0.042.

As for UBQLN4 (UniProt Q9NRR5), the log2 fold change was inactive: -0.057.

Regarding TWSG1 (UniProt Q9GZX9), the log2 fold change is inactive: 0.116.

As for UBA1 (UniProt P22314), the log2 fold change is inactive: 0.139.

Take UBR5 (UniProt O95071): the log2 fold change is inactive: -0.044.

Regarding UAP1L1 (UniProt Q3KQV9), the log2 fold change is inactive: 0.186.

Turning to UBP1 (UniProt Q9NZI7), the log2 fold change was inactive: 0.019.

In the case of UBE2NL (UniProt Q5JXB2), the log2 fold change was inactive: -0.005.

On to TUBD1 (UniProt Q9UJT1), for which the log2 fold change was inactive: 0.062.
